Laboratory results: PubChem BioAssay AID1508600 (Functional Genomics Laboratory (NCATS/FGL), 2020)
The whole screen tested about 53,000 sequences, of which about 3,700 (7%) were called active.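 How the source made its calls: active means gene knockdowns whose robust z-score for IL-1 alpha signal is at least 2 or at most -2, so actives lie on both sides; inactive means the rest.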 The list shows a part of the results.

Assay: Components of the Cytosolic LPS Sensing Pathway: Gene Identification via Genome-wide siRNA Screen;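 further: robust z of the log signal after scaling to non-targeting control siRNA wells of the plate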
Details: RAW264.7 macrophages, IL-1a HTRF, actives lie on both sides, screened at 100 nM (by protocol), cells primed 5 h with Pam3CSK4 first
Method in brief: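 Mouse macrophage line RAW264.7 is transfected with siRNA (100 nM final), grown 48h, primed with TLR ligand Pam3CSK4 5 h and given intracellular LipidA 24 h. IL-1a in supernatant is read by HTRF and viability by luminescence.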
For GGCAUUUAAAUCUGUGUGUTT against Slc39a6, the z-score was inactive: -0.471.
In the case of GCUUCUCAGAAGAUGUACUTT against Rgs16, the z-score is reported as inactive: -1.06.
For GCUUACCUGAGAUGUGCUCTT against Dbx1, the z-score was inactive: -1.3.
With “GGGUAAAAUUAUUCUCAGGTT against 1600012H06Rik” the z-score was inactive: 0.172.
With CCACCACAAGUUUCCAUGUTT against Rnf17 the z-score was inactive: -0.532.
With GGAAUGUGAACCUUAUAGATT against Tmem30a the z-score was inactive: -0.553.
In the case of GGUCAUUCCCAUUAAACAGTT against Emc8, the z-score is reported as active: -2.57.
With GGCAACCAAAGUUAGUGUGTT against Ifi204 the z-score was inactive: -0.147.
In the case of GGGAACCUCUGAAAAGAGGTT against Teddm1b, the z-score is reported as inactive: 0.409.
For GCCUCGACCAGUUUAAUCATT against Vwa5a, the z-score was inactive: -0.119.
With GCCAUCACGAAAAUUCUAGTT against Tufm the z-score was inactive: -0.665.
For GGUGGUUCACAAAUACUGUTT against Agtpbp1, the z-score was inactive: 0.264.
With CCUGGCAGAUGGAUUCGUATT against Kif6 the z-score was inactive: 0.223.
With GGUUUCUGCCAUCCAUCAGTT against Zfa-ps the z-score was inactive: -0.705.
For GCUCGUACAUCUAUGGCUATT against Psmb6, the z-score was inactive: -0.633.
With GGAUGAUACUUCAUUACACTT against Ankrd12 the z-score was inactive: -0.727.
In the case of “GCUCGAAGAAAGGCCCUGATT against B430306N03Rik”, the z-score is reported as inactive: -0.509.
With GGGAGACUCUCAUUUAAAUTT against Casp3 the z-score was inactive: 0.406.
With GGAGUUGAAAGGAGUGAGCTT against Cadm4 the z-score was inactive: -1.47.
In the case of GGAAUGGAACACAAAUAGCTT against Kdelr2, the z-score is reported as inactive: 0.191.
For GGUAUUAUGACCAGAUUAUTT against Plxnb3, the z-score was inactive: 0.736.
In the case of GGGAAGAUCAGCUUUCAUATT against Pak1ip1, the z-score is reported as inactive: -0.896.
In the case of GGAGAACAGUUUCAAGAUGTT against Rnf152, the z-score is reported as inactive: -0.487.
For CCACGUCCUAAGAGACAUUTT against Eps8l3, the z-score was inactive: 0.262.
With GGAAGAACAAAAAUGCAAGTT against Irf8 the z-score was inactive: 0.0325.
With GGCGGUGAAGUCUAAGGCATT against H1f5 the z-score was inactive: 1.54.
For GGACAAAACCAUCUCCUUCTT against Olfr17, the z-score was inactive: 0.324.
With GGACCUGACCUUGCUGUUATT against Fancg the z-score was inactive: 1.57.
For GCUCUAACGUAUGAUGCCATT against Nde1, the z-score was inactive: 0.206.
In the case of GGAAUAUAUCUGCUUUAUCTT against Gphb5, the z-score is reported as inactive: 0.0714.
With GGAGCAGGUAAACAUGUCUTT against Fpr-rs7 the z-score was inactive: -0.218.
In the case of GCGAUGAGUAUAUCAAGUUTT against Hdac2, the z-score is reported as inactive: 1.61.
In the case of CCAGCUUCCUCGUAAGUGATT against Hsf4, the z-score is reported as inactive: -1.71.
In the case of GGAGAUGUAUGCCGCUUAUTT against Lcat, the z-score is reported as inactive: 1.23.
In the case of GGAGAAAGGUGGUACCAAGTT against Deaf1, the z-score is reported as inactive: 1.12.
For GGCACCCGAGUAGGUCAAATT against Carhsp1, the z-score was active: 6.02.
With GCUUGAAGUCUCUUGCUGGTT against Nhlrc2 the z-score was active: 3.53.
In the case of GCUGACAAAACUGCUAAACTT against Ctnnb1, the z-score is reported as inactive: 0.948.
In the case of GGAUUAGGAUCAGCAGGAUTT against Accs, the z-score is reported as inactive: 1.01.
For GGAUCUAAAGGUGAGUCAATT against Dcaf12l1, the z-score was inactive: -0.388.
For GGAUCUUACAGUUUCGUCUTT against Oas3, the z-score was inactive: 0.146.
For GGAACAGAGAGUAAAAUCUTT against Map3k7cl, the z-score was inactive: 0.339.
In the case of GGACAUGGUCUCCAAACUATT against Pgd, the z-score is reported as inactive: -1.78.
With GGCAUGGUGAAUGAAAUUGTT against Calml3 the z-score was inactive: -0.578.
For CCAACCAAAGAUGAAUUGUTT against Usp19, the z-score was inactive: -0.445.
In the case of UAAUAAAAGGAGGUGGUUCTT against Ube2dnl1, the z-score is reported as inactive: 0.491.
For CCCAGCUGGCAUGAUCUUUTT against Pbld1, the z-score was inactive: 0.979.
With GGACUUGUCAGCACUGAGCTT against Fcrla the z-score was inactive: -0.552.
In the case of GGAAGAGUGGGAGAAAAUATT against H2-M9, the z-score is reported as inactive: -1.39.
In the case of GAGAGAGCAGAGCUUGAGATT against Angptl6, the z-score is reported as inactive: 1.65.
In the case of GGGCAACAUUUUUCAGUGCTT against Prox1, the z-score is reported as inactive: 0.722.
With GGUUGAAGGCCAAUUCAAATT against Lrrc10 the z-score was active: 2.94.
For CCUACUACCUCUGUCAACATT against Nme4, the z-score was inactive: -1.65.
In the case of GAUUGUCACCACCUUAAGATT against Chchd5, the z-score is reported as inactive: -0.964.
With “GCUGAUAGGCACGAGUAUCTT against 4930430F08Rik” the z-score was inactive: 1.8.
In the case of CCAUGACCAGGAUGGAUCATT against Cchcr1, the z-score is reported as inactive: -1.17.
For GGGAACCUUGCUAUUUGGATT against Gucy2c, the z-score was inactive: -0.0205.
In the case of GGAGGAACAAUCAUCUAUATT against Ripk2, the z-score is reported as inactive: 1.1.
With GGAUUGACCUCCAAGGACATT against Osgep the z-score was inactive: -0.731.
For CCCAAACUAUGUUCUUGAATT against Tll2, the z-score was inactive: 0.259.
In the case of GGGUUUGGAUGCAGCAUCUTT against Gata1, the z-score is reported as inactive: -1.68.
For GGACCAGGAUCAGUUGAUCTT against Olfr1406, the z-score was inactive: -1.55.
With GGUAUUAAACACCAGCUCUTT against Nsfl1c the z-score was inactive: 0.0261.
For GCAAGUGAGACCUACUGUATT against Syne2, the z-score was inactive: -0.791.
In the case of GGGAUGGUGGAGAGAAAGATT against Hsdl1, the z-score is reported as inactive: 0.496.
For GGGCACACACUUCAAUUUUTT against Sap18, the z-score was inactive: 0.301.
For CCAAUUAGUCACUCUUAGATT against Errfi1, the z-score was inactive: 0.528.
With CCAUGAUCGCUAGUGAAGCTT against Mrpl24 the z-score was inactive: -0.743.
With GGGUAUCAACCACUUUUUUTT against Serping1 the z-score was inactive: 2.
For GCUCUCAGAUGACAUCACUTT against Supt5, the z-score was active: -2.43.
In the case of CCAAGGUAUGAAGAUAUUUTT against Rfpl4, the z-score is reported as inactive: 0.575.
For GGCUUCUUAUUGAUGUUGGTT against Asb13, the z-score was inactive: -0.166.
In the case of GGCUGCUACUUCAGACAGCTT against Pou6f2, the z-score is reported as inactive: -0.163.
For GGCCAAAAUUAAAAAGGCCTT against Chmp1b, the z-score was inactive: 1.12.
For GGACAAAGAAUCCAAAAUATT against Etv6, the z-score was active: 2.25.
With CCACGCAACUAUAAGCUGCTT against B3gat1 the z-score was inactive: -1.26.
In the case of CCUAAUGUUUAGAUCCAUATT against Gcm2, the z-score is reported as inactive: 0.11.
With GGUACUGUCCAAGAAGCCGTT against Ankmy2 the z-score was inactive: -0.966.
For GCCUCAUUAGUUAAUAUUCTT against Ppp1r8, the z-score was inactive: -0.301.
With GGAUAAACGGACAGGCCCATT against Socs2 the z-score was inactive: 0.282.
For GGUCCCAACGAAGAAACCATT against Cd55, the z-score was inactive: 0.475.
With GGGACAACCCAUCAACAAUTT against Catsper1 the z-score was inactive: -0.614.
For GGACAGUGUGUUUUCUUGUTT against Ankle1, the z-score was inactive: 0.551.
For GCCUUUCGAUUCUAAUUGCTT against Fkbp6, the z-score was inactive: 0.577.
With GGCUAUGUUAUUGACAUGUTT against Ammecr1l the z-score was inactive: 0.208.
With GGCAGAACACUGAAAGGGATT against Mrps11 the z-score was inactive: 0.816.
With GCCAGGGACUUGCUAUUGATT against Txlna the z-score was inactive: -0.24.
For GGAUCAUGGUCCUGUCUUUTT against Rlbp1, the z-score was inactive: -0.258.
With CCAAUGUGCUCAUGCUCUATT against Nodal the z-score was inactive: 1.06.
In the case of CGAGAACCCUGACAUAAUCTT against Ddx54, the z-score is reported as inactive: -0.576.
With GCCACAAAUCGAAUCUUACTT against Zfp146 the z-score was inactive: 1.58.
With GGGCAAUCUGAGCAAUUGUTT against Wnt7b the z-score was inactive: -0.213.
For GGUCUUUCCGGCAGUUCUUTT against Rxrg, the z-score was active: -2.27.
With GGGAAGGAUUUUUGAUGAUTT against Arfgap1 the z-score was inactive: 1.33.
In the case of GGAAAUGUUGAAUCUUGCUTT against Mfsd4a, the z-score is reported as inactive: 0.0725.
With GGAAUCUUCUCAGCUUAAUTT against Slc17a2 the z-score was inactive: -0.363.
For CCUACAACUCAGCGCAUGATT against Ptgs1, the z-score was inactive: -1.28.
In the case of GGAACUGAUGAAUAUUUCATT against Chrnb1, the z-score is reported as inactive: 0.78.
In the case of GCAAAUGUAAUGGUGAAAGTT against Cldn1, the z-score is reported as inactive: -0.328.
For CGGCUGACUACAUUUCAAGTT against Camk4, the z-score was inactive: -1.12.
In the case of GGAUCAGUACCUGUGAUGGTT against Adamdec1, the z-score is reported as active: -2.07.
With GGUCUGUGACGAGAAGCUATT against Rab4a the z-score was inactive: -1.43.
For GGUGUCAUUAGCUUUACUUTT against Armc1, the z-score was inactive: 1.94.
In the case of CCAACGUGUCCUUGCUCAATT against Tsks, the z-score is reported as inactive: -1.28.
For GCUCAACCGUAACAUCCAGTT against Krt77, the z-score was inactive: 0.614.
For CGGCUCACUAGCAGUGUCUTT against Ppm1b, the z-score was inactive: -0.209.
In the case of GGAAAAGGUGUUCUGUUUUTT against Ankef1, the z-score is reported as inactive: 0.165.
